Results reported in article PMC7017148.
These are yes or no findings as the source states them, for the method shown. Binding seen in cells or lysates may run through a third protein. Some results given as binding are weak or reduced against the parent protein; the word gives no strength.

Chains of the proteins cited; added tags and fusions are not shown.
UniProt P07355: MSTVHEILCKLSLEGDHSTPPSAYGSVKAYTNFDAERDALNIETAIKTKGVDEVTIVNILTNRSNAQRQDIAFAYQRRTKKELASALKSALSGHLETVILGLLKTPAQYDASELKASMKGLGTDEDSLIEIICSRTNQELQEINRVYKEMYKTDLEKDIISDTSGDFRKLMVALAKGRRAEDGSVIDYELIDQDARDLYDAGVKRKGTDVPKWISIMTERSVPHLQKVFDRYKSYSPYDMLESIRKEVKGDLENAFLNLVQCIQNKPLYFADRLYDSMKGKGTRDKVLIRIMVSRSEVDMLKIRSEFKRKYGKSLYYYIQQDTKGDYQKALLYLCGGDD

Tests used:
[1] = molecular target: T1, E3 ubiquitin-ligase Hakai (human (endogenous in HEK293T, ACHN, HT29, HCT116)) (UniProt Q75N03); test: condition: only cells treated with 10 µM geldanamycin for 24 h; co-IP; HCT116 cells treated with 10 µM geldanamycin for 24 h before lysis; immunoprecipitation with Hakai or Annexin A2 antibody; western blot
T1 sequence: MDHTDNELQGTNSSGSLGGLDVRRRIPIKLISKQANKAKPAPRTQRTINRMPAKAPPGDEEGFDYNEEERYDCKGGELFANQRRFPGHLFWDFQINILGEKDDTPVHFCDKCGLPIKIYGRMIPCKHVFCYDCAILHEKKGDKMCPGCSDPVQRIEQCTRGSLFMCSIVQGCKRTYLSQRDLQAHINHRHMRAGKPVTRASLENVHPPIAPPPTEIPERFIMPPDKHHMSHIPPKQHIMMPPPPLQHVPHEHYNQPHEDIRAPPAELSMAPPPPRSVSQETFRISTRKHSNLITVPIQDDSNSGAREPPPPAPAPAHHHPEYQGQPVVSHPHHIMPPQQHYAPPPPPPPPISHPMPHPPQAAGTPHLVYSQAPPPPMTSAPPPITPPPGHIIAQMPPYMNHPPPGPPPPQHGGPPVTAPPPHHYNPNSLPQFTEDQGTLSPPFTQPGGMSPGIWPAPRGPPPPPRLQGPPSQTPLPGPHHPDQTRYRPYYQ

[2] = molecular target: T1, E3 ubiquitin-ligase Hakai (human (endogenous in HEK293T, ACHN, HT29, HCT116)); test: co-IP; endogenous proteins; whole cell extracts (HEK293T, ACHN, HT29, HCT116) in 1% Triton X-100 buffer (20 mM Tris-HCl pH 7.5, 150 mM NaCl); antibody (Hakai, Hsp90 or Annexin A2) or control IgG on Protein A or Protein G PLUS agarose, 2 h at 4 °C; western blot
[3] = molecular target: Annexin A2 (human (endogenous in HCT116)) (UniProt P07355); test: condition: only cells treated with 10 µM geldanamycin for 24 h; co-IP; HCT116 cells treated with 10 µM geldanamycin for 24 h before lysis; immunoprecipitation with Hakai or Annexin A2 antibody; western blot

## Annexin A2 (from UniProt P07355 1-339)
[1]
  binding: no binding
[2]
  binding: binds

B1: E3 ubiquitin-ligase Hakai (protein, UniProt Q75N03 1-491)
chain: MDHTDNELQGTNSSGSLGGLDVRRRIPIKLISKQANKAKPAPRTQRTINRMPAKAPPGDEEGFDYNEEERYDCKGGELFANQRRFPGHLFWDFQINILGEKDDTPVHFCDKCGLPIKIYGRMIPCKHVFCYDCAILHEKKGDKMCPGCSDPVQRIEQCTRGSLFMCSIVQGCKRTYLSQRDLQAHINHRHMRAGKPVTRASLENVHPPIAPPPTEIPERFIMPPDKHHMSHIPPKQHIMMPPPPLQHVPHEHYNQPHEDIRAPPAELSMAPPPPRSVSQETFRISTRKHSNLITVPIQDDSNSGAREPPPPAPAPAHHHPEYQGQPVVSHPHHIMPPQQHYAPPPPPPPPISHPMPHPPQAAGTPHLVYSQAPPPPMTSAPPPITPPPGHIIAQMPPYMNHPPPGPPPPQHGGPPVTAPPPHHYNPNSLPQFTEDQGTLSPPFTQPGGMSPGIWPAPRGPPPPPRLQGPPSQTPLPGPHHPDQTRYRPYYQ
[3]
  binding: no binding
